Laboratory results: publication PMC4749184
These are yes or no findings as the source states them, for the method shown. A result given as binding can be weak or reduced; the word gives no strength.

Sequences of proteins named here, by UniProt entry; tags and fusion partners are left off. A change or cut given only in a name is not applied to a line headed by its entry. Residues count along the entry.
UniProt P15962, residues 1-296: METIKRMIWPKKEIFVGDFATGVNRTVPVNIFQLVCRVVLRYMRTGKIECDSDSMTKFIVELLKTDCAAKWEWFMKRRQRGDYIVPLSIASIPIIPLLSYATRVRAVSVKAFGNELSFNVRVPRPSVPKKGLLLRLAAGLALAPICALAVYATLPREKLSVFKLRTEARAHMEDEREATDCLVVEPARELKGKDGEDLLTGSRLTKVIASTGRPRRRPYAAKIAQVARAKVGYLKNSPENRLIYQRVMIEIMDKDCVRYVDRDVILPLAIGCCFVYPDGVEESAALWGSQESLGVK
UniProt Q03048: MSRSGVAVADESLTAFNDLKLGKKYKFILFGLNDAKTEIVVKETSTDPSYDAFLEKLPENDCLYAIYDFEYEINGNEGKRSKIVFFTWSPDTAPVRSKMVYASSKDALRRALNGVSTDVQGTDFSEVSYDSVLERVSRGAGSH

Target: TBSV p33 replication protein (bait of the split-ubiquitin assay) (Tomato bushy stunt virus) (UniProt P15962)
Experiment: two-hybrid; split-ubiquitin assay in yeast; p33 as bait co-expressed with NubG prey proteins; SSA1 and the empty prey vector (NubG-X) as positive and negative controls

| Substance | binding |
| --- | --- |
| Cof1p mutant cof1-5 ts, split-ubiquitin prey (from UniProt Q03048) | binds |
| Cof1p mutant cof1-8 ts, split-ubiquitin prey (from UniProt Q03048) | binds |
| Cof1p mutant cof1-20, split-ubiquitin prey (from UniProt Q03048) | binds |
